Results reported in patent US20050130130A1 (INSTITUT NATIONAL DE LA SANTE ET DE LA RECHERCHE MEDICALE …, published 2005).
No constants are given. Whether binding was seen depends on the method and setting. For some of these results: In cells and extracts the contact can be indirect. Some results given as binding are weak or reduced against the parent protein; the word gives no strength.

Protein sequences, listed by entry. Tags and fused reporters are not part of them. Lines headed by an entry give the natural chain unless they say otherwise; changes in a name come on top. Residues count along the entry.
UniProt P08637, residues 17-254: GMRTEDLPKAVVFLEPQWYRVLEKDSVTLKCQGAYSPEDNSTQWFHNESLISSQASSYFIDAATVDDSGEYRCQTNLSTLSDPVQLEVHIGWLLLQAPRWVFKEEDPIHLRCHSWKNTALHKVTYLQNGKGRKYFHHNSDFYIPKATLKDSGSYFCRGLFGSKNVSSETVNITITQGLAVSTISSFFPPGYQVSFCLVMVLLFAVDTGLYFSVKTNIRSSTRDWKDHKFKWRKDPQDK
UniProt P43631, residues 22-304: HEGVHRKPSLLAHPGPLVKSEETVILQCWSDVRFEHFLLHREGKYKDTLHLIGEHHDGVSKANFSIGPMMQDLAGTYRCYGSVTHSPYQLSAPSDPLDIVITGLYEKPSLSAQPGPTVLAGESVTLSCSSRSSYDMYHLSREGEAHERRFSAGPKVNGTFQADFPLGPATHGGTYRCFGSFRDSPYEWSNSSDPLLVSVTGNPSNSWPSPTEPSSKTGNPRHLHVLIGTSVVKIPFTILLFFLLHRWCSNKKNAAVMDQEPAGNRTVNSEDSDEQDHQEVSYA
UniProt Q14954, residues 22-304: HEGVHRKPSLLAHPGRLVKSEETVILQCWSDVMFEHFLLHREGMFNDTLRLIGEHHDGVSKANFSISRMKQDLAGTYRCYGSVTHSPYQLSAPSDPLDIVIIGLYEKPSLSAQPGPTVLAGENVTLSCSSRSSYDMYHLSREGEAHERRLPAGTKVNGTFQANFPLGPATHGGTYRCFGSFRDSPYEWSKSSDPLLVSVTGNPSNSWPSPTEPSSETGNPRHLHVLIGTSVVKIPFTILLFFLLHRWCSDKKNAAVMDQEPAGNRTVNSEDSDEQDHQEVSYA
UniProt P43632, residues 22-304: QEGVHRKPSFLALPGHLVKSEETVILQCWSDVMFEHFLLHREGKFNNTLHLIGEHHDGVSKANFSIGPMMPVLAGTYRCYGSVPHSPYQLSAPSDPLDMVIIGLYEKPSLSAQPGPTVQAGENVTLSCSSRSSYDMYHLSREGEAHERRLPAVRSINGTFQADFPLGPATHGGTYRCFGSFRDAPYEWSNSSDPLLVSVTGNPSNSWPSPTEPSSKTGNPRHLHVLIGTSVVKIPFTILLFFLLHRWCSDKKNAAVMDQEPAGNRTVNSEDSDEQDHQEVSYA
UniProt P20963: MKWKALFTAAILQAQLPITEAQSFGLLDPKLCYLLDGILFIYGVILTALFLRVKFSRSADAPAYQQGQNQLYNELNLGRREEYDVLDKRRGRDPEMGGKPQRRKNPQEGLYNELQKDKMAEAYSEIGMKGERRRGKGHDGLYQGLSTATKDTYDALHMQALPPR
UniProt O43914, residues 22-113: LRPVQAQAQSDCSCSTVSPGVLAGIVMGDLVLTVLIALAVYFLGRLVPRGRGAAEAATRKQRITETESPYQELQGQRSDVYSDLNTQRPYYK

Tests used:
CD16 (RFcγIII) (human) = CD16 (RFcγIII) (human) (UniProt P08637); experiment: anti-CD16 immunoprecipitation from R.P. NK cell lysates, in vitro kinase test
p50.2 KAR = target: T1, p50.2 KAR (human, UniProt P43631 22-304); experiment: co-immunoprecipitation with anti-CD158 from 125I-labelled D.F. NK cell lysates, SDS-PAGE
T1 construct: whole, on cells; also called KAR of D.F. NK cells; KAR p50.2

p50.1 KAR (human) [1] = target: p50.1 KAR (human) (UniProt Q14954); experiment: anti-CD158 immunoprecipitation from R.P. NK cell lysates, in vitro kinase test, two-dimensional non-denaturing/denaturing SDS-PAGE
p50.1 KAR (human) [2] = target: p50.1 KAR (human) (UniProt Q14954); experiment: co-immunoprecipitation with EB6 from 125I-labelled R.P. NK cell lysates (1% digitonin), SDS-PAGE
p50.3 KAR (human) [3] = target: p50.3 KAR (human) (UniProt P43632); experiment: co-immunoprecipitation with anti-CD158 from 125I-labelled MAL. NK cell lysates, SDS-PAGE
p50.1 KAR (human) [4] = target: p50.1 KAR (human) (UniProt Q14954); experiment: anti-CD158 immunoprecipitation from R.P. NK cell lysates, in vitro kinase test
p50.3 KAR (human) [5] = target: p50.3 KAR (human) (UniProt P43632); experiment: anti-CD158 immunoprecipitation from MAL. NK cell lysates, in vitro kinase test, SDS-PAGE

Row | binding (CD16 (RFcγIII) (human)) | binding (p50.2 KAR) | binding (p50.1 KAR (human) [1]) | binding (p50.1 KAR (human) [2]) | binding (p50.3 KAR (human) [3]) | binding (p50.1 KAR (human) [4]) | binding (p50.3 KAR (human) [5]) | Substance
1 | binds | – | – | – | – | – | – | CD3ζ (from UniProt P20963 22-164)
2 | – | binds | binds | binds | binds | binds | binds | human KARAP (KAR-associated protein) DAP-12 (from UniProt O43914 22-113)
